Experimental data published in US6897306B2, “3-heterocyclylpropanohydroxamic acids” (Pfizer Products, Inc., priority 1999, dated 2005).
For some of these results: At least one structure is not confirmed: it was looked up by name or label, or the drawing left a doubt. Some of these results come from one statement about several compounds together.

Sequences of proteins named here, by UniProt entry; tags and fusion partners are left off. Residues count along the entry.
UniProt P08253, 110-446 limits assumed, species assumed: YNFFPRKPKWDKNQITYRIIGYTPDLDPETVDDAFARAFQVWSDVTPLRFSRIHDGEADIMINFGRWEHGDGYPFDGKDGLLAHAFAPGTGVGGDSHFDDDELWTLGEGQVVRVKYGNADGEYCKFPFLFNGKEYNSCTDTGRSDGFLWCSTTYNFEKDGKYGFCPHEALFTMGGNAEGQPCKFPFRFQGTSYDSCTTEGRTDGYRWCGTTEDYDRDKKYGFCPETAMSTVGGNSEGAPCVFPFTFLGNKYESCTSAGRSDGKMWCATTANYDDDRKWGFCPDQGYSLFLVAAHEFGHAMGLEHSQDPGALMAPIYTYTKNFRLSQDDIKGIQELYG

Assays:
[1] = molecular target: T1, Human PCP (Homo sapiens, UniProt P13497); experiment: fluorogenic PCP cleavage assay (PCP inhibition); format: biochemical; conditions: fluorogenic substrate, 37° C., pH 7.6
T1 construct: made in house; host or cells: stably transfected CHO cells (secreted into the supernatant)
T1 sequence (P13497 121-986): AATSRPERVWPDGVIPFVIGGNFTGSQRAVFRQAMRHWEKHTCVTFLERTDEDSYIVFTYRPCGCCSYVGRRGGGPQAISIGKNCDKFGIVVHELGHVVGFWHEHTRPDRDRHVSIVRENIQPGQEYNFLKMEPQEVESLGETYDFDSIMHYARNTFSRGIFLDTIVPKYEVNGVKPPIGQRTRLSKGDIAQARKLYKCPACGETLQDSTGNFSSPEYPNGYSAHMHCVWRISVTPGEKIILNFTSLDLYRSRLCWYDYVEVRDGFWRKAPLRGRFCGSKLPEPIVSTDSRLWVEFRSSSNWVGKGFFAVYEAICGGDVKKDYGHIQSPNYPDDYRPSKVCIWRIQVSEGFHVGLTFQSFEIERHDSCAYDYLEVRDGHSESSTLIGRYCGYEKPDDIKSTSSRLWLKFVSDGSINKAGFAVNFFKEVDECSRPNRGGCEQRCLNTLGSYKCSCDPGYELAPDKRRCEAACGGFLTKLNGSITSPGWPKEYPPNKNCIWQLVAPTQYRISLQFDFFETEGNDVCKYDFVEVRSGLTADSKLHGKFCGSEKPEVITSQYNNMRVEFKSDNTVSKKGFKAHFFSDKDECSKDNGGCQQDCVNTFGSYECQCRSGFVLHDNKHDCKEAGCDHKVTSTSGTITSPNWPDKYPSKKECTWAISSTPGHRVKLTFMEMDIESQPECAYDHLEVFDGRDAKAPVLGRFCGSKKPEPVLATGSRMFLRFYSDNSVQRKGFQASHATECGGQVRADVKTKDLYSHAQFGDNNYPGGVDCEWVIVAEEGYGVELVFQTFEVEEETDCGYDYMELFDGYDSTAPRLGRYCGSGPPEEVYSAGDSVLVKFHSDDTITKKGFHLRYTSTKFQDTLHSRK

[2] = molecular target: T2, Catalytic domain MMP-2 (Homo sapiens, UniProt P08253); experiment: Inhibition of MMP-2 (fluorogenic peptide cleavage); format: biochemical; conditions: relative to PCP IC50
T2 construct: Catalytic domain MMP-2 and MMP-9 were prepared at Pfizer Central Research; made in house

[3] = tested on: endothelial cell invasion of basement membrane; conditions: cited from earlier work

| SMILES | IC50 [1] | selectivity vs MMP-2 [2] | inhibition of endothelial cell invasion of basement membrane [3] |
| --- | --- | --- | --- |
| CN(CC(=O)O)C(=O)c1noc([C@H](CCCC2CCCCC2)CC(=O)NO)n1 [Example 17, 2-[[(5-{(1R)-4-Cyclohexyl-1-[2-(hydroxyamino)-2-oxoethyl]butyl}-1,2,4-oxadiazol-3-yl)carbonyl](methyl)amino]acetic Acid] | ≤ 500 nM | more than 100 fold |  |
| O=C(C[C@@H](CCCC1CCCCC1)c1nc(C(=O)NC2CNC2)no1)NO [Example 44, N-(3-Azetidinyl)-5-{(1R)-4-cyclohexyl-1-[2-(hydroxyamino)-2-oxoethyl]butyl}-1,2,4-oxadiazole-3-carboxamide] | ≤ 500 nM | more than 100 fold |  |
| O=C(C[C@@H](CCCC1CCCCC1)c1nc(CC(=O)N2CCCC2)no1)NO [Example 24, (3R)-6-Cyclohexyl-N-hydroxy-3-{3-[2-oxo-2-(1-pyrrolidinyl)ethyl]-1,2,4-oxadiazol-5-yl}hexanamide] | ≤ 500 nM | more than 100 fold |  |
| O=C(C[C@@H](CCCC1CCCCC1)c1nc(CS(=O)(=O)c2ccccc2)no1)NO [Example 25, (3R)-6-Cyclohexyl-N-hydroxy-3-{3-[(phenylsulfonyl)methyl]-1,2,4-oxadiazol-5-yl}hexanamide] | ≤ 500 nM | more than 100 fold |  |
| O=C(C[C@@H](CCCC1CCCCC1)c1nc(COc2ccc(Cl)cc2)no1)NO [Example 26, (3R)-3-{3-[(4-Chlorophenoxy)methyl]-1,2,4-oxadiazol-5-yl}-6-cyclohexyl-N-hydroxyhexanamide] | ≤ 500 nM | more than 100 fold |  |
| O=C(C[C@@H](CCCC1CCCCC1)c1nc(C(=O)N2CCC(c3ccncc3)CC2)no1)NO [Example 15, (3R)-6-Cyclohexyl-N-hydroxy-3-(3-{[4-(4-pyridinyl)-1-piperidinyl]carbonyl}-1,2,4-oxadiazol-5-yl)hexanamide] | ≤ 500 nM | more than 100 fold |  |
| CN(C)C(=O)c1coc([C@H](CCCC2CCCCC2)CC(=O)NO)n1 [Example 29, 2-{(1R)-4-Cyclohexyl-1-[2-(hydroxyamino)-2-oxoethyl]butyl}-N,N-dimethyl-1,3-oxazole-4-carboxamide] | ≤ 500 nM | more than 100 fold |  |
| Cc1oc([C@H](CCCC2CCCCC2)CC(=O)NO)nc1C(N)=O [Example 32, 2-{(1R)-4-Cyclohexyl-1-[2-(hydroxyamino)-2-oxoethyl]butyl}-5-methyl-1,3-oxazole-4-carboxamide] | ≤ 500 nM | more than 100 fold |  |
| O=C(C[C@@H](CCCC1CCCCC1)c1nc(C(=O)N2CC(N3CCOCC3)C2)no1)NO [Example 14, (3R)-6-Cyclohexyl-N-hydroxy-3-(3-{[3-(4-morpholinyl)-1-azetidinyl]carbonyl}-1,2,4-oxadiazol-5-yl)hexanamide] | ≤ 500 nM | more than 100 fold |  |
| CNC(=O)c1noc([C@H](CCCC2CCCCC2)CC(=O)NO)n1 [Example 3, 5-{(1R)-4-Cyclohexyl-1-[2-(hydroxyamino)-2-oxoethyl]butyl}-N-methyl-1,2,4-oxadiazole-3-carboxamide] | ≤ 500 nM | more than 100 fold |  |
| CN(C)C1CCN(C(=O)c2noc([C@H](CCCC3CCCCC3)CC(=O)NO)n2)CC1 [Example 13, (3R)-6-Cyclohexyl-3-(3-{[4-(dimethylamino)-1-piperidinyl]carbonyl}-1,2,4-oxadiazol-5-yl)-N-hydroxyhexanamide] | ≤ 500 nM | more than 100 fold |  |
| O=C(C[C@@H](CCCC1CCCCC1)c1nc(C(=O)N2CCOCC2)no1)NO [Example 37] | ≤ 500 nM | more than 100 fold |  |
| O=C(C[C@@H](CCCC1CCCCC1)c1nc(C(=O)N2CCCC2)no1)NO [Example 30, (3R)-6-Cyclohexyl-N-hydroxy-3-[3-(1-pyrrolidinylcarbonyl)-1,2,4-oxadiazol-5-yl]hexanamide] | ≤ 500 nM | more than 100 fold |  |
| CNC(=O)[C@H](Cc1ccccc1)NC(=O)[C@H](CC(C)C)[C@H](CSc1cccs1)C(=O)NO [BB94, (2S,3R)-5-methyl-3-{[(1S)-1-(methylcarbamoyl)-2-phenylethyl]carbamoyle}-2-[(2-thienylthio)methyl]hexanohydroxamic acid] |  |  | inhibits |
| CC(C)c1noc([C@H](CCCC2CCCCC2)CC(=O)NO)n1 [Example 21, (3R)-6-Cyclohexyl-N-hydroxy-3-(3-isopropyl-1,2,4-oxadiazol-5-yl)hexanamide] | ≤ 500 nM | more than 100 fold |  |
| COCCc1noc([C@H](CCCC2CCCCC2)CC(=O)NO)n1 [Example 23, (3R)-6-Cyclohexyl-N-hydroxy-3-[3-(2-methoxyethyl)-1,2,4-oxadiazol-5-yl]hexanamide] | ≤ 500 nM | more than 100 fold |  |
| O=C(C[C@@H](CCCC1CCCCC1)c1nc(C(=O)NCc2ccccc2)no1)NO [Example 33] | ≤ 500 nM | more than 100 fold |  |
| NC(=O)c1noc([C@H](CCCC2CCCCC2)CC(=O)NO)n1 [Example 2(a), 5-{(1R)-4-Cyclohexyl-1-[2-(hydroxyamino)-2-oxoethyl]butyl}-1,2,4-oxadiazole-3-carboxamide] | ≤ 500 nM | more than 100 fold |  |
| COCc1noc([C@H](CCCC2CCCCC2)CC(=O)NO)n1 [Example 22, (3R)-6-Cyclohexyl-N-hydroxy-3-[3-(methoxymethyl)-1,2,4-oxadiazol-5-yl]hexanamide] | ≤ 500 nM | more than 100 fold |  |
| CCOC(=O)c1coc([C@H](CCCC2CCCCC2)CC(=O)NO)n1 [Example 28, Ethyl 2-{(1R)-4-cyclohexyl-1-[2-(hydroxyamino)-2-oxoethyl]butyl}-1,3-oxazole-4-carboxylate] | ≤ 500 nM | more than 100 fold |  |
| O=C(C[C@@H](CCCC1CCCCC1)c1nc(C(=O)N2CCc3ncccc3C2)no1)NO [Example 39] | ≤ 500 nM | more than 100 fold |  |
| CN1CCN(C(=O)c2noc([C@H](CCCC3CCCCC3)CC(=O)NO)n2)CC1 [Example 38] | ≤ 500 nM | more than 100 fold |  |
